PubChem BioAssay AID504784 – Drosophila RNAi Screening Center | 2011
The deposit covers about 17,000 reagents; this is a random part of those that have a named target and a result. 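Each column is one replicate's B-score; the combined score over replicates was not deposited, so single values may mislead.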 Names joined by + are all predicted targets of the reagent. No sequences are given here.

Assay: 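Search for regulators of lipid droplet storage in oleate-fed fly cells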 (primary screen)
System: Drosophila Kc167 embryonic cells
Reagent: long dsRNA against Drosophila genes, about 250 ng dsRNA per well
Timing: 4 days
Treatment: cells fed 400 µM oleic acid bound to BSA
Detection: 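Microscope images give a droplet-to-nucleus area ratio, taken as log and converted to a screen-wide B-score; higher values mean greater lipid storage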
Reading the numbers: droplet/nuclear area B-score: higher = more stored lipid (overstorage)

Target gene	DRSC id	droplet/nuclear area B-score, replicate 1	droplet/nuclear area B-score, replicate 2	droplet/nuclear area B-score, replicate 3
IntS8	DRSC07417	-0.674	0.0242	
Con	DRSC08652	0.81	-0.385	
PLCXD	DRSC02427	-0.407	-2.22	0.204
Bacc	DRSC00735	1.16	0.447	
aPKC	DRSC05515	1.15	-0.0398	
aPKC	DRSC07639	0.846	0.243	
CG6106	DRSC19971	0.0927	0.133	
CG30047	DRSC05340	1.45	-0.611	
CG33225	DRSC03881	-1.44	1.9	
inaF-B + inaF-D + inaF-C + 1 more	DRSC20342	0.108	0.546	-0.0711
l(2)efl	DRSC04698	1.86	-0.376	
Drat	DRSC06600	1.64	3.2	
Top3alpha	DRSC03460	-1.47	-0.222	
CG11248	DRSC11644	1.33	0.533	0.86
CG16998	DRSC10235	-2.15	-0.188	
CG30389	DRSC04077	-2.63	-1.4	
CG30389	DRSC04452	2.05	-0.438	
GstD6	DRSC16687	0.246	-1.25	
CG33287	DRSC22929	0.557	2.06	
CG18418	DRSC08535	-0.931	0.578	
CG11854	DRSC14409	0.0431	-0.637	
mRpS35	DRSC08551	0.245	5.08	
Cog2	DRSC16987	0.284	-1.41	
IntS14	DRSC00668	0.703	-0.0494	
CG3184	DRSC18289	0.1	-1.43	0.336
l(2)dtl	DRSC04697	-1.2	0.059	
CG42374 + Mettl5	DRSC11085	0.432	-1.43	0.107
CG7201	DRSC10786	0.0997	1.32	
bma	DRSC09896	-0.341	-1.7	
bma	DRSC10164	0.881	-0.924	
TotM	DRSC02355	-0.344	-0.5	
tbrd-3	DRSC04295	1.73	-1.23	
CG12546	DRSC11676	-1.81	-2.55	
SmydA-6	DRSC07341	-0.0968	-0.171	
PRL-1	DRSC03393	-0.497	-2.41	
elgi	DRSC10242	-0.0248	-1.41	-0.955
Cpr76Bc	DRSC11062	-0.402	-0.23	
CG3294	DRSC00590	-0.0299	0.409	
CG6695	DRSC16098	-0.052	-0.00336	
Tg	DRSC03047	-1.38	-0.344	
crp	DRSC03515	-1.21	-0.599	
Fur2	DRSC19817	0.0062	1.68	
Dnai2	DRSC10575	-0.469	-0.331	
Task6	DRSC16530	0.339	-0.0349	
CycE	DRSC03295	-1.47	-2.11	
CycE	DRSC03296	-1.81	2.81	
CG8993	DRSC08616	-0.772	-0.029	
CG1773	DRSC06688	-1.24	0.584	
kis	DRSC00521	-1.05	1.44	
kis	DRSC00625	-1.2	2.75	
kis	DRSC00823	1.85	0.692	
Tim17b1	DRSC12179	1.46	1.63	
CG32590	DRSC19594	-1.36	4.79	
CG14257	DRSC14752	0.00961	0.466	
Nepl6	DRSC03242	2.02	1.36	
CG14340	DRSC00370	0.341	0.28	
